Laboratory results as given in PMC3712912.
No constants are given. Whether binding was seen depends on the method and setting. Some entries that bind do so weakly or less than the wild type.

Sequences of proteins named here, by UniProt entry; tags and fusion partners are left off. A change or cut given only in a name is not applied to a line headed by its entry. A line that says so, or that is headed by a name, gives the form on record, which may keep a tag or linker.
UniProt Q15691: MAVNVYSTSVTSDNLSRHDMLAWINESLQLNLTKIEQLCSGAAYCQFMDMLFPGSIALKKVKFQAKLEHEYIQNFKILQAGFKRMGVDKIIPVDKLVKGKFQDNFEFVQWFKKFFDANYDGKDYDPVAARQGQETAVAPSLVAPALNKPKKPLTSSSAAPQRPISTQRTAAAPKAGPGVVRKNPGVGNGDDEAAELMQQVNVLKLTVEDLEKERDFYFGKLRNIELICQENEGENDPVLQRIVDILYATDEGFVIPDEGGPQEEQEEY
p135 Nt-GCN4 (MMRQ, p150Glued amino acids 139–210, GCN4 coiled-coil, linker, C-terminal 6×-His) (Q14203-1, form named): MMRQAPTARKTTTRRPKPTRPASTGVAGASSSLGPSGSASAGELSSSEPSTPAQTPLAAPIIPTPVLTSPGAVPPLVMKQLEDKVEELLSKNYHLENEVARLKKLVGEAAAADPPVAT
p150 Nt-GCN4 (human p150Glued amino acids 1–210, GCN4 coiled-coil, linker, C-terminal 6×-His) (Q14203-1, form named): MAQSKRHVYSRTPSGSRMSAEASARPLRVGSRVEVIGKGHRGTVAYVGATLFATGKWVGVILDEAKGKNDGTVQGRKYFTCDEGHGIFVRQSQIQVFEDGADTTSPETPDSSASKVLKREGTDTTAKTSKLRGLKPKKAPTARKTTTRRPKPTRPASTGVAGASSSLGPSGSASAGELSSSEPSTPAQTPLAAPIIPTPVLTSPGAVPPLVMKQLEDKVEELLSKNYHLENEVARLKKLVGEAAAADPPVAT

Target: recombinant full-length EB1 (UniProt Q15691)
Assay: SEC; EB1 and p150 polypeptide run alone or pre-incubated in a 1∶2 ratio; analytical Superdex 200 10/300 GL, BRB20 pH 7.1 with 125 mM KCl and 10 mM imidazole, 4 °C; both purified

| binding | Substance |
| --- | --- |
| no binding | p135 Nt-GCN4 (MMRQ, p150Glued amino acids 139–210, GCN4 coiled-coil, linker, C-terminal 6×-His) (from UniProt Q14203-1 139-210) (domain or fragment) |
| binds | p150 Nt-GCN4 (human p150Glued amino acids 1–210, GCN4 coiled-coil, linker, C-terminal 6×-His) (from UniProt Q14203-1 1-210) (domain or fragment) |
